Assay results taken from the M2OR odorant receptor database.
The list shows a part of the results, in another mix than the full data. Calls are pooled over several reports, among them a noisy single-well screen. The list shows a part of the results.

Protein sequences, listed by entry. Tags and fused reporters are not part of them. Chains listed by the source or under a name are the forms on record and can include a tag or linker.
UniProt E9Q891, as listed by the source: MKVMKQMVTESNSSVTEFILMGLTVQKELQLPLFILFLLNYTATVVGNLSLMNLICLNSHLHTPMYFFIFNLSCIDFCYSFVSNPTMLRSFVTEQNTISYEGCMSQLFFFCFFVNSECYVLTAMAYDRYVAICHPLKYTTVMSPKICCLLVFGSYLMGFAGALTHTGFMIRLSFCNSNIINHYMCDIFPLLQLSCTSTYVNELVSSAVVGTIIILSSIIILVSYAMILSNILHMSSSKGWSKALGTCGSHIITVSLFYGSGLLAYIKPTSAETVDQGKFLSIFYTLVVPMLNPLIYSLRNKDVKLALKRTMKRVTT
UniProt K7N5T5, as listed by the source: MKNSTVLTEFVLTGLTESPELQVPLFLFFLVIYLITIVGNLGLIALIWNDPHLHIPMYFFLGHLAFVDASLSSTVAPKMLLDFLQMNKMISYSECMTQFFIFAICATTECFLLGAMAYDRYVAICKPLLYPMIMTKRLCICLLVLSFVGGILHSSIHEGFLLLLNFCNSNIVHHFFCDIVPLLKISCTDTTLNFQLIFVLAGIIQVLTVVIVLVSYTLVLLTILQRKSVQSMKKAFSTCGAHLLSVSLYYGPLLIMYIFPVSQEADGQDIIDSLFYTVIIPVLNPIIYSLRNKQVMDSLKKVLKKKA
UniProt L7N1Y8, as listed by the source: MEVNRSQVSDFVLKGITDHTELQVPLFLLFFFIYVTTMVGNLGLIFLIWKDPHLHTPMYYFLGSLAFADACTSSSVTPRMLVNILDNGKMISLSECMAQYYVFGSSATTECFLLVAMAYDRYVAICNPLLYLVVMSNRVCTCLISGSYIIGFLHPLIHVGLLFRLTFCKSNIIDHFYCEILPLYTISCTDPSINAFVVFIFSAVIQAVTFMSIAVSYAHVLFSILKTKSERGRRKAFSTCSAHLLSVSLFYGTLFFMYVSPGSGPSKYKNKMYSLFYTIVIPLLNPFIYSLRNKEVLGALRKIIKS
UniProt E9QAT7, as listed by the source: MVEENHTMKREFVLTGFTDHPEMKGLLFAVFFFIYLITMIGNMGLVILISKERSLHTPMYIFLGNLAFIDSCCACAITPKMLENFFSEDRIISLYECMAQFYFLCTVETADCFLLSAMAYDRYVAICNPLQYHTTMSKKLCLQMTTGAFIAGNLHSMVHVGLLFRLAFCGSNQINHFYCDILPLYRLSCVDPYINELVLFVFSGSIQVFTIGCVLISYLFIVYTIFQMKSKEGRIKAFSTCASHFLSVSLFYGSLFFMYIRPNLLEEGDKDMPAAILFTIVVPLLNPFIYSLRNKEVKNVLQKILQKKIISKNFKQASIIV
UniProt L7N0P5, as listed by the source: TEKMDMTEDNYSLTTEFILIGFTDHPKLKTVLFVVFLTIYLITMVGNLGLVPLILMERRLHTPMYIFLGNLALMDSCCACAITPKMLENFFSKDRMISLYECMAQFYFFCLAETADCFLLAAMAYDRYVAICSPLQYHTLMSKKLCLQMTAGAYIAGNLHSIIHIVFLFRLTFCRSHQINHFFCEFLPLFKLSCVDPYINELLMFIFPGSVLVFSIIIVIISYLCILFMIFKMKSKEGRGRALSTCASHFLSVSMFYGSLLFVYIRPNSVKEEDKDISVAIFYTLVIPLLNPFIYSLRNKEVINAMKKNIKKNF

What was measured:
Details in all cases: stereoisomer not certain
[1] = biological target: T1, UniProt E9Q6Z7
T1 sequence (whole entry): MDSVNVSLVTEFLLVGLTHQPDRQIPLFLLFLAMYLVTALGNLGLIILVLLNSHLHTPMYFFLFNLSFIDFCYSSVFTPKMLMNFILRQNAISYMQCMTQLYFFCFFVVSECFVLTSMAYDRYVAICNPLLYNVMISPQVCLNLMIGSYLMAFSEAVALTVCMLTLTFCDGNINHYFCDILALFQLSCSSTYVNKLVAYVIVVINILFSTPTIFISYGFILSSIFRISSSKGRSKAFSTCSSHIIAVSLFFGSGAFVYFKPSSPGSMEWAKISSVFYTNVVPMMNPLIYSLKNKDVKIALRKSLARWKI
In short: (§1)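 Transient luciferase assays in mammalian cell lines were common, though methods varied by source. The values come from published papers and their supplementary material, with extra details from the original authors when needed. Responsive refers to a measured signal the original authors judged statistically different from baseline, and non-responsive (inactive) to the remainder.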

[2] = biological target: T2, UniProt L7MU75
T2 sequence (whole entry): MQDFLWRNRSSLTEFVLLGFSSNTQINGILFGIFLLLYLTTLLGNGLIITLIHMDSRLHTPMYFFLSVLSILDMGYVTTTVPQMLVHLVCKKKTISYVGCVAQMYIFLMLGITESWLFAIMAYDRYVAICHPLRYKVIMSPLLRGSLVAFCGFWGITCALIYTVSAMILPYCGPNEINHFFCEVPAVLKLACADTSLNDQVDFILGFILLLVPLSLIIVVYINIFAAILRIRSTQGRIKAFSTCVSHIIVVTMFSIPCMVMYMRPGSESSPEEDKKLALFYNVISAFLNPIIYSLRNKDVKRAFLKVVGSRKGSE
In short: as §1

[3] = biological target: T3, UniProt L7N210
T3 sequence (whole entry): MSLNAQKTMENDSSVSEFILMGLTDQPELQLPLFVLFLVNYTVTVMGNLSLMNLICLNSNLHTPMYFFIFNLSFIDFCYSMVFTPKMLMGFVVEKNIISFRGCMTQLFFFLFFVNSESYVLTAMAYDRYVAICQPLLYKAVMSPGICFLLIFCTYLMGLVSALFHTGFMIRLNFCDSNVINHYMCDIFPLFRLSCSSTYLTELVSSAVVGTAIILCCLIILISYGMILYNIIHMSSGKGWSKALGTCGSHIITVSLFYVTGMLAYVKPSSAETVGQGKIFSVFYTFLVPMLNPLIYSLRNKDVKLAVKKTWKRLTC
In short: as §1

[4] = biological target: T4, UniProt K7N609
T4 sequence (whole entry): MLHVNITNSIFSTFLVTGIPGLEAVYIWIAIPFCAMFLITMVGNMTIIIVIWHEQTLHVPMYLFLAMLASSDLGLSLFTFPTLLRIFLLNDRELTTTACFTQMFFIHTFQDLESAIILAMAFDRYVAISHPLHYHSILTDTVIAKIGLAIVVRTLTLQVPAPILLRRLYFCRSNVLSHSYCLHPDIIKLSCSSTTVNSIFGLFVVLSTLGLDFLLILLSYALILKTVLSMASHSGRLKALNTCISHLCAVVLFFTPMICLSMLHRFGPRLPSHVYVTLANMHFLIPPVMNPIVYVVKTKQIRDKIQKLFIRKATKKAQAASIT
In short: as §1

[5] = biological target: T5, UniProt E9Q9Z6
T5 sequence (whole entry): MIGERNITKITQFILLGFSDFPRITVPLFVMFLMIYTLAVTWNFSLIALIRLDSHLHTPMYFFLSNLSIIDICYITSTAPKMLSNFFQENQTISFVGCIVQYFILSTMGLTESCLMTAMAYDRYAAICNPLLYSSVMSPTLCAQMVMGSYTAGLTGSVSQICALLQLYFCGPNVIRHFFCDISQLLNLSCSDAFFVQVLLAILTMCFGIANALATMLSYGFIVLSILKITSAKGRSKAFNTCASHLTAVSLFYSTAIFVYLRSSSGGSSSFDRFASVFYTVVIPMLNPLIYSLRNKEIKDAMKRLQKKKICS
In short: as §1

[6] = biological target: UniProt E9Q891
In short: as §1

[7] = biological target: UniProt K7N5T5
In short: as §1

[8] = biological target: UniProt L7N1Y8
In short: as §1

[9] = biological target: UniProt E9QAT7
In short: as §1

[10] = biological target: UniProt L7N0P5
In short: as §1
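Also: active if original authors judged signal statistically different from baseline.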

SMILES: c1cnccn1
- odorant receptor agonist call [1]: inactive
- odorant receptor agonist call [2]: inactive
- odorant receptor agonist call [3]: inactive

SMILES: CCCCCCCCCCC=O
- odorant receptor agonist call [2]: inactive

SMILES: CC(=O)C(C)=O
- odorant receptor agonist call [1]: inactive
- odorant receptor agonist call [2]: inactive
- odorant receptor agonist call [3]: inactive

SMILES: CCCCCCC=O
- odorant receptor agonist call [1]: inactive
- odorant receptor agonist call [4]: inactive
- odorant receptor agonist call [2]: inactive
- odorant receptor agonist call [3]: inactive

SMILES: CC(C)(O)CCCC1=CCC(C=O)CC1 (centres undefined)
- odorant receptor agonist call [1]: inactive
- odorant receptor agonist call [4]: inactive
- odorant receptor agonist call [2]: inactive
- odorant receptor agonist call [3]: inactive

SMILES: CC1CCC(C(C)C)C(O)C1 (centres undefined)
- odorant receptor agonist call [2]: inactive

SMILES: O=C1CCCCCCCCCCCCCCO1
- odorant receptor agonist call [1]: inactive
- odorant receptor agonist call [5]: active
- odorant receptor agonist call [2]: inactive
- odorant receptor agonist call [3]: inactive

SMILES: CCCCCCCCCC=O
- odorant receptor agonist call [1]: inactive
- odorant receptor agonist call [4]: inactive
- odorant receptor agonist call [2]: inactive
- odorant receptor agonist call [3]: inactive

SMILES: COc1ccccc1O
- odorant receptor agonist call [1]: inactive
- odorant receptor agonist call [2]: inactive
- odorant receptor agonist call [3]: inactive

SMILES: CC1COCc2cc3c(cc21)C(C)(C)C(C)C3(C)C (centres undefined)
- odorant receptor agonist call [1]: inactive
- odorant receptor agonist call [5]: active
- odorant receptor agonist call [2]: inactive
- odorant receptor agonist call [3]: inactive

SMILES: O=C1CCCCCCCCCCCC(=O)OCCO1
- odorant receptor agonist call [5]: active

SMILES: C=C(C)C1CC=C(C)C(=O)C1 (centres undefined)
- odorant receptor agonist call [1]: inactive
- odorant receptor agonist call [6]: active
- odorant receptor agonist call [7]: active
- odorant receptor agonist call [4]: inactive
- odorant receptor agonist call [2]: inactive
- odorant receptor agonist call [8]: active
- odorant receptor agonist call [3]: inactive

SMILES: CC12CCC(CC1)C(C)(C)O2
- odorant receptor agonist call [1]: inactive
- odorant receptor agonist call [2]: inactive
- odorant receptor agonist call [3]: inactive

SMILES: CC(C)C=O
- odorant receptor agonist call [1]: inactive
- odorant receptor agonist call [2]: inactive
- odorant receptor agonist call [3]: inactive

SMILES: CCCCCCCCC=O
- odorant receptor agonist call [1]: inactive
- odorant receptor agonist call [4]: inactive
- odorant receptor agonist call [2]: inactive
- odorant receptor agonist call [3]: inactive

SMILES: CCCCCC(=O)O
- odorant receptor agonist call [1]: inactive
- odorant receptor agonist call [4]: inactive
- odorant receptor agonist call [2]: inactive
- odorant receptor agonist call [3]: inactive

SMILES: CC12CCC(C1)C(C)(C)C2=O (centres undefined)
- odorant receptor agonist call [4]: inactive
- odorant receptor agonist call [2]: inactive
- odorant receptor agonist call [3]: inactive

SMILES: C=CCc1ccc(OC)c(OC)c1
- odorant receptor agonist call [1]: inactive
- odorant receptor agonist call [9]: active
- odorant receptor agonist call [2]: inactive
- odorant receptor agonist call [10]: active
- odorant receptor agonist call [3]: active

SMILES: CCCCCC(C)=O
- odorant receptor agonist call [1]: inactive
- odorant receptor agonist call [4]: inactive
- odorant receptor agonist call [2]: inactive
- odorant receptor agonist call [3]: inactive

SMILES: CC(=O)c1ccccc1
- odorant receptor agonist call [1]: inactive
- odorant receptor agonist call [6]: active
- odorant receptor agonist call [7]: inactive
- odorant receptor agonist call [4]: inactive
- odorant receptor agonist call [2]: inactive
- odorant receptor agonist call [8]: active
- odorant receptor agonist call [3]: active

SMILES: O=C1CCCCC1
- odorant receptor agonist call [5]: inactive
- odorant receptor agonist call [4]: inactive
- odorant receptor agonist call [2]: inactive
- odorant receptor agonist call [3]: inactive

SMILES: CCCC(=O)O
- odorant receptor agonist call [2]: inactive

SMILES: CC1=CCC(C(C)(C)O)CC1 (centres undefined)
- odorant receptor agonist call [2]: inactive

SMILES: C=CCc1ccc(O)c(OC)c1
- odorant receptor agonist call [1]: inactive
- odorant receptor agonist call [2]: inactive
- odorant receptor agonist call [3]: inactive

SMILES: COc1cc(C=O)ccc1O
- odorant receptor agonist call [1]: inactive
- odorant receptor agonist call [2]: inactive
- odorant receptor agonist call [3]: active

SMILES: COC(=O)c1ccccc1O
- odorant receptor agonist call [1]: inactive
- odorant receptor agonist call [2]: inactive
- odorant receptor agonist call [3]: inactive

SMILES: C=CC(C)(O)CCC=C(C)C (centres undefined)
- odorant receptor agonist call [1]: inactive
- odorant receptor agonist call [2]: inactive
- odorant receptor agonist call [3]: inactive

SMILES: CCCCO
- odorant receptor agonist call [1]: inactive
- odorant receptor agonist call [2]: inactive
- odorant receptor agonist call [3]: inactive

SMILES: CC(=O)OC1CC2CCC1(C)C2(C)C (centres undefined)
- odorant receptor agonist call [1]: inactive
- odorant receptor agonist call [2]: inactive
- odorant receptor agonist call [3]: inactive

SMILES: CC(C)CC(=O)O
- odorant receptor agonist call [1]: inactive
- odorant receptor agonist call [2]: inactive
- odorant receptor agonist call [3]: inactive

SMILES: CCCCCOC(C)=O
- odorant receptor agonist call [1]: inactive
- odorant receptor agonist call [2]: inactive
- odorant receptor agonist call [3]: inactive

SMILES: CCCCCCCC=O
- odorant receptor agonist call [1]: inactive
- odorant receptor agonist call [4]: inactive
- odorant receptor agonist call [2]: inactive
- odorant receptor agonist call [3]: inactive

SMILES: CC(C)=CCCC(C)=CC=O
- odorant receptor agonist call [1]: inactive
- odorant receptor agonist call [2]: inactive
- odorant receptor agonist call [3]: inactive
